Assay results published in doi:10.1101/2020.03.26.010314.
Where two headings read alike, the source gives them in different places. No constants are given. Whether binding was seen depends on the method and setting. Binding seen in cells or lysates may run through a third protein. Some entries that bind do so weakly or less than the wild type.

Amino acid sequences for entries named in this document (tags omitted). Residues count along the entry.
UniProt D3YZU1: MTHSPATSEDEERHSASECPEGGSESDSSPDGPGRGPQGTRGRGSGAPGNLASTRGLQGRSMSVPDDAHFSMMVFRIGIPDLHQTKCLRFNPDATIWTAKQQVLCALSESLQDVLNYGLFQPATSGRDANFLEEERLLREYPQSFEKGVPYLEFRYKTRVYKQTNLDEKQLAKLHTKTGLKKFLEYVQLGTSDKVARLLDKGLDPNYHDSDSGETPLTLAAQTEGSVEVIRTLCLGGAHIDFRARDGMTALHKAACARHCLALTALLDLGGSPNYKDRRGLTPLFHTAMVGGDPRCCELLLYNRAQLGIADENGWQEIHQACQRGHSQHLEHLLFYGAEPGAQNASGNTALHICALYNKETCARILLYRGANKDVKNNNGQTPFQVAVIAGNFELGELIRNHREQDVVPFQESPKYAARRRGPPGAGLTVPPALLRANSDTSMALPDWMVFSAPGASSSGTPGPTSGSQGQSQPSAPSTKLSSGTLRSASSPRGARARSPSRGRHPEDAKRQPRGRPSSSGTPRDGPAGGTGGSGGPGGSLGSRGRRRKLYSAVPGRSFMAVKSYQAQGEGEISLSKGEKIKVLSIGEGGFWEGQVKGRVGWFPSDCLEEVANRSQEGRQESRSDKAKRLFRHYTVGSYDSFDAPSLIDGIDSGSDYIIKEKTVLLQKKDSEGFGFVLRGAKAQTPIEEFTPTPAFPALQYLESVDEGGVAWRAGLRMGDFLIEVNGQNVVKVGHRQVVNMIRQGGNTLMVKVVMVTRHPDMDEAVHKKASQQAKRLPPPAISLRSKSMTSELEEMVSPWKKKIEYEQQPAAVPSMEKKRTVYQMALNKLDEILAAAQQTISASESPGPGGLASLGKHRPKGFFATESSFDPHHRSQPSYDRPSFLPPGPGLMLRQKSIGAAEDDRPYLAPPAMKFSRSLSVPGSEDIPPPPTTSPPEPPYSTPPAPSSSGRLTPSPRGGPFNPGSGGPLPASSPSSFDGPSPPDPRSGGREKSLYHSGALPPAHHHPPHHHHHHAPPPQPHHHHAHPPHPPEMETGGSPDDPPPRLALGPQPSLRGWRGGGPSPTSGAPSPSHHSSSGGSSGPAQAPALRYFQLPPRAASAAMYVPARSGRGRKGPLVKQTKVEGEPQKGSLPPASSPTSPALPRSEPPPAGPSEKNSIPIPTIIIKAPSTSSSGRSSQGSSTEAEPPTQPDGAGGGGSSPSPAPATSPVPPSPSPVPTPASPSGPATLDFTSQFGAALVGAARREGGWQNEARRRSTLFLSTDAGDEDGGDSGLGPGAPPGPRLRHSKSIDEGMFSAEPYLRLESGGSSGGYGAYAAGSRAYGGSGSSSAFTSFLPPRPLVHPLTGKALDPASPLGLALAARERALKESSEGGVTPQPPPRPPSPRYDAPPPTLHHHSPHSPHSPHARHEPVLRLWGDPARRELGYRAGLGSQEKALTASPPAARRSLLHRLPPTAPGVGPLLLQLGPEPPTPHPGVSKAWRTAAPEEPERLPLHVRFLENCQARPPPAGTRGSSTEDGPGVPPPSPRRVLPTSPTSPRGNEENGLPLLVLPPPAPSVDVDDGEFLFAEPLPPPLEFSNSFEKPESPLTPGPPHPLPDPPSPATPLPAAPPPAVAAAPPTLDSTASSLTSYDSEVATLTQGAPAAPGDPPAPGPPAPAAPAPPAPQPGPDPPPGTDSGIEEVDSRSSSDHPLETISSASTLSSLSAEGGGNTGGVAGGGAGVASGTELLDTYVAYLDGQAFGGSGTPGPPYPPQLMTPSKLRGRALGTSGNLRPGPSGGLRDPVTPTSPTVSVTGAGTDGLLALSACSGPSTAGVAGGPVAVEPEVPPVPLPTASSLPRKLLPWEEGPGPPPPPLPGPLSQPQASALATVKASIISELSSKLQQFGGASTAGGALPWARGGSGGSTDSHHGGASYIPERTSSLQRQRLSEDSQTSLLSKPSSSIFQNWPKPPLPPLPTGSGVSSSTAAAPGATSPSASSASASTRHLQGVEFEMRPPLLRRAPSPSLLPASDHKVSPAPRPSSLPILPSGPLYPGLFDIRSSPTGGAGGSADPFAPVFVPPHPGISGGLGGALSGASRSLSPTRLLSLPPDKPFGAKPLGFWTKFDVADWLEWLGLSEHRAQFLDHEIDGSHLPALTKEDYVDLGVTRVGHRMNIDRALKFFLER
UniProt Q8BYM5, residues 35-825: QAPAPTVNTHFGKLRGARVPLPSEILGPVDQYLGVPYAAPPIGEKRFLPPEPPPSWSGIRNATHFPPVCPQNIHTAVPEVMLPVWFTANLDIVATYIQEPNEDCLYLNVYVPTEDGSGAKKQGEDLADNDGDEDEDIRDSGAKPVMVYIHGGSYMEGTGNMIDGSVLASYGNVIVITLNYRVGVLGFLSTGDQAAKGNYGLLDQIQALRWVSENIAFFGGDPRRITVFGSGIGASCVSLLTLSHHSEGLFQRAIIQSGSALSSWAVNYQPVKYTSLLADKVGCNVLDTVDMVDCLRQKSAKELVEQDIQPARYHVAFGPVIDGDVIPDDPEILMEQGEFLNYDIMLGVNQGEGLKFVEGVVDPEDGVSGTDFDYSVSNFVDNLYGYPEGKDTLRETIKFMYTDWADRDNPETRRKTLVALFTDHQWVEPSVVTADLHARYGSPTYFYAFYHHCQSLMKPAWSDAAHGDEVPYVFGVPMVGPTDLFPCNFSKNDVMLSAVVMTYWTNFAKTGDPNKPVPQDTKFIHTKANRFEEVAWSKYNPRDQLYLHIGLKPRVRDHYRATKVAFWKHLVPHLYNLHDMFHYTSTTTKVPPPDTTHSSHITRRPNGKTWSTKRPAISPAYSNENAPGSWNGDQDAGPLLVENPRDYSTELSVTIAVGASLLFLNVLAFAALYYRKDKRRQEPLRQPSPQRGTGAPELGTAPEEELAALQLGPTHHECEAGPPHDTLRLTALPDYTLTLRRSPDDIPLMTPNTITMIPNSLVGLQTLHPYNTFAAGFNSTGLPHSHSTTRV
UniProt P39688: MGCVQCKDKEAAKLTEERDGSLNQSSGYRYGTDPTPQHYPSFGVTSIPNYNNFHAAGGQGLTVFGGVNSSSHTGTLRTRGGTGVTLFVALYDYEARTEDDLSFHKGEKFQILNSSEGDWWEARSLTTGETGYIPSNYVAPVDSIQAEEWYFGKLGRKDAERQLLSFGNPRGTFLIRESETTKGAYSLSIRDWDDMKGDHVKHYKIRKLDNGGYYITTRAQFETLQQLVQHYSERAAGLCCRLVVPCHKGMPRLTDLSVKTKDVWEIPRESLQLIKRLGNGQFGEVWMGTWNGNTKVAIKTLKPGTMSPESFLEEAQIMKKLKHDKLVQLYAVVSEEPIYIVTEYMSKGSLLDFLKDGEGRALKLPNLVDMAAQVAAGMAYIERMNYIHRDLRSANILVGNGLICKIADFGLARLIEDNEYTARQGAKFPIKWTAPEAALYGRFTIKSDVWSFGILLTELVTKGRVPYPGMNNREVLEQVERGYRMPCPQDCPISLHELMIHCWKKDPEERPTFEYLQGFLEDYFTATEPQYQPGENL
UniProt Q3UHD9: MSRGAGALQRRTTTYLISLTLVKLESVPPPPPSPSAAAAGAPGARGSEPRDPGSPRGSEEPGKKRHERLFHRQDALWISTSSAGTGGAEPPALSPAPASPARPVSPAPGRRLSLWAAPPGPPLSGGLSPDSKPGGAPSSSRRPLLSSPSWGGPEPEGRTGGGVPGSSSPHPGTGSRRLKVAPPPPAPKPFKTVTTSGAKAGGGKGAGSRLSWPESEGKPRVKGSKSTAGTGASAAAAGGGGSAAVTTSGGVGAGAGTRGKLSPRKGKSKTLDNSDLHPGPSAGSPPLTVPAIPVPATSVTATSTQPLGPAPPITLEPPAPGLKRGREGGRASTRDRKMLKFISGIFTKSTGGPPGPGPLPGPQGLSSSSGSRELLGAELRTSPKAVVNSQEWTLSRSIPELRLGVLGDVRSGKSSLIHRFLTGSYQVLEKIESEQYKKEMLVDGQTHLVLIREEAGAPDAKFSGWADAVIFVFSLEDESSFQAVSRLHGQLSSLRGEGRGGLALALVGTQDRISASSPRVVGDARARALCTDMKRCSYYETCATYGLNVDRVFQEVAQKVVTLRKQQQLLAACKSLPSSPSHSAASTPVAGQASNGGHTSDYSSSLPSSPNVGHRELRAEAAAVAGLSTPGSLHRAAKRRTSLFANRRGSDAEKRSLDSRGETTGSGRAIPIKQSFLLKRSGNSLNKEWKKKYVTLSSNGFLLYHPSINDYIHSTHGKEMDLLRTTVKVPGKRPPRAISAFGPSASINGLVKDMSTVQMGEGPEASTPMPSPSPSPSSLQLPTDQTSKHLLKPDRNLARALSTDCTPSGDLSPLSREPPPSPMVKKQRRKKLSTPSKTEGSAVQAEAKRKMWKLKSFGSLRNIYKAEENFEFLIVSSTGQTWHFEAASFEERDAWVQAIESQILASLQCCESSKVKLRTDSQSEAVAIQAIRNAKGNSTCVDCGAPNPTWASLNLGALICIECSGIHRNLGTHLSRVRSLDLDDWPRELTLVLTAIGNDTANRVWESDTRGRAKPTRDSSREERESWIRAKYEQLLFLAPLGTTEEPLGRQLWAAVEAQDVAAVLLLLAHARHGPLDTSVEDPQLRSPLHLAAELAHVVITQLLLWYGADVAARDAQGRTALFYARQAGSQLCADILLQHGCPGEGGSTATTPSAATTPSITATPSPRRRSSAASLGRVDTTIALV
UniProt Q4ACU6: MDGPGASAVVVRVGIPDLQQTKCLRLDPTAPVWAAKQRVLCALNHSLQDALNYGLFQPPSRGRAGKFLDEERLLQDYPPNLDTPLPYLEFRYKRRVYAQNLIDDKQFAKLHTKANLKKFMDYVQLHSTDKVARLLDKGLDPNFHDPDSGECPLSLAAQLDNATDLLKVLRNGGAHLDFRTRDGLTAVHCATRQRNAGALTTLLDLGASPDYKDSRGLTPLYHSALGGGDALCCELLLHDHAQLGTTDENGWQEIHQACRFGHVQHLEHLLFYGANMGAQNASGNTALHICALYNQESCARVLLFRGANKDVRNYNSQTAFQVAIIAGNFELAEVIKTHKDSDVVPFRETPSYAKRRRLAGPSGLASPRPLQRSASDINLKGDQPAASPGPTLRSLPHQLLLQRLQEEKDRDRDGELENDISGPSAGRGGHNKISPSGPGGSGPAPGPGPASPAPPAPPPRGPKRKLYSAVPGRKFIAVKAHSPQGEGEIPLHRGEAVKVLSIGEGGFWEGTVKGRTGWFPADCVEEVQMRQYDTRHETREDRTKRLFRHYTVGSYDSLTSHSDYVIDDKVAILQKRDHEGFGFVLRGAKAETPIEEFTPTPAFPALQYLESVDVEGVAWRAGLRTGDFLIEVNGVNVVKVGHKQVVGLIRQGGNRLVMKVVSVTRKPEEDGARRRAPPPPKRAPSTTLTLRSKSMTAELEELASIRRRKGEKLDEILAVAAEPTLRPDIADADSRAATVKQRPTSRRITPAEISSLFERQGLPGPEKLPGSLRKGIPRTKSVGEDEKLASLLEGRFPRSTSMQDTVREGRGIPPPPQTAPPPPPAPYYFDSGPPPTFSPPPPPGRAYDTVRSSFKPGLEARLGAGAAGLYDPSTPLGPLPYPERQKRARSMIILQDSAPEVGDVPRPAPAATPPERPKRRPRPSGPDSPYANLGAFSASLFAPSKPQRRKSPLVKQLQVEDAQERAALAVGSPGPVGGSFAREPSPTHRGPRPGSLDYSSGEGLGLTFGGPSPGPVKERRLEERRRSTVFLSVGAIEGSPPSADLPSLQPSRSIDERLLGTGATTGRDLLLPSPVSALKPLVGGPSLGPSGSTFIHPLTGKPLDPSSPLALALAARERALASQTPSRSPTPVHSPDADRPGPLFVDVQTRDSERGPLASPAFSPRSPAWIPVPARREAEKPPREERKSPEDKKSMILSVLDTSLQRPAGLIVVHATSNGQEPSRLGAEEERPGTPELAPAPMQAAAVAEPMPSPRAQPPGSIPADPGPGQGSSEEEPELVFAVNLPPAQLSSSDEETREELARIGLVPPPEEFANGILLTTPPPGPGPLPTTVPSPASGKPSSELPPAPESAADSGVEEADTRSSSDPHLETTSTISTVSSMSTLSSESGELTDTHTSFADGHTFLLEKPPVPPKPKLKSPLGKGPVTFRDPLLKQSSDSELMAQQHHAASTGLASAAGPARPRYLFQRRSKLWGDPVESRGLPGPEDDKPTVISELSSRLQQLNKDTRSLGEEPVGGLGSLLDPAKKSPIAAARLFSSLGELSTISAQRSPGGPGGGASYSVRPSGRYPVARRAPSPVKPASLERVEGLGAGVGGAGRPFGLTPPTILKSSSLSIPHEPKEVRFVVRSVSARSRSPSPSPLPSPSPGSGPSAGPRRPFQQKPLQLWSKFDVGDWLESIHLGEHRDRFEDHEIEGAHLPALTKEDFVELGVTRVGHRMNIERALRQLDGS

Assays:
Experiment in all cases: co-IP
[1] = target: T1, E3 ubiquitin ligase Ube3a (mouse (endogenous in cultured cortical neurons and barrel cortex)) (UniProt O08759)
T1 sequence: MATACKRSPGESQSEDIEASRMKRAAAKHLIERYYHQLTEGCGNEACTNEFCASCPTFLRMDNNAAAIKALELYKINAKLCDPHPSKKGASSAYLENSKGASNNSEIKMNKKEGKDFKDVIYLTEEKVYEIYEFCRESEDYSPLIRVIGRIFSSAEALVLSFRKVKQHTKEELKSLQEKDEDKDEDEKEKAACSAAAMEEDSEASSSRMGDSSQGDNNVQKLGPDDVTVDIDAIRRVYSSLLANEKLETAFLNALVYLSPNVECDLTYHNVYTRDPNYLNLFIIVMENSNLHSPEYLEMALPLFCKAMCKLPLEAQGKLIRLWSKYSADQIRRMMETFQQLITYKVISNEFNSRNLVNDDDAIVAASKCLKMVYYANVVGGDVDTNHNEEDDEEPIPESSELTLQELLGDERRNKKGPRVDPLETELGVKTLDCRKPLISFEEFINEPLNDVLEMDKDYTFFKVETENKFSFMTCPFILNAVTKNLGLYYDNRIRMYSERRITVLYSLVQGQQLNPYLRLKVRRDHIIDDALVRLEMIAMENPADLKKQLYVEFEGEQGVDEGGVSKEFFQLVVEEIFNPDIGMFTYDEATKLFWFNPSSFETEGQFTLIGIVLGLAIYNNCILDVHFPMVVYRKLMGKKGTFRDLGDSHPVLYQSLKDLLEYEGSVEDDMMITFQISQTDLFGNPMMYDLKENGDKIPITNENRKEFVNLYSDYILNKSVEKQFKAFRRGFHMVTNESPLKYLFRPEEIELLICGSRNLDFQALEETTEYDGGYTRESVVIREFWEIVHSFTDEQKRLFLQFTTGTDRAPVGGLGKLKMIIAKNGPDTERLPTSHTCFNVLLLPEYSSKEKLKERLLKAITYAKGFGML

[2] = target: NMDAR2A (mouse (endogenous in cultured cortical neurons and barrel cortex)) (UniProt P35436)
[3] = target: NMDAR2B (mouse (endogenous in cultured cortical neurons and barrel cortex)) (UniProt Q01097)
[4] = target: Shank1 (mouse (endogenous in cultured cortical neurons and barrel cortex)) (UniProt D3YZU1)
[5] = target: metabotropic glutamate receptor mGluR5 (mouse (endogenous in cultured cortical neurons and barrel cortex)) (UniProt Q3UVX5)
[6] = target: NL3 (mouse (endogenous in barrel cortex)) (UniProt Q8BYM5)
[7] = target: T2, Homer1 (mouse (endogenous in cultured cortical neurons and barrel cortex)) (UniProt Q9Z2Y3)
T2 sequence: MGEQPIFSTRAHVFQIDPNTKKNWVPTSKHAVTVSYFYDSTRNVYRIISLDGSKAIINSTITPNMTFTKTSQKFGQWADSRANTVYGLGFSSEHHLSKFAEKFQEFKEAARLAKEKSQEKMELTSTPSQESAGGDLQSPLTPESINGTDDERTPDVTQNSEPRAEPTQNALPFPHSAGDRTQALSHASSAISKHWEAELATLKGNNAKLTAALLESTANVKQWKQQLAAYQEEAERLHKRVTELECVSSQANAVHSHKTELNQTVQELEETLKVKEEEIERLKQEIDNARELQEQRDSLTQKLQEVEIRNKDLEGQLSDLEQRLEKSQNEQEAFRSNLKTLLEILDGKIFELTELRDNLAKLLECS

[8] = target: T3, E3 ubiquitin ligase Ube3a (mouse (endogenous in cultured cortical neurons and barrel cortex)), O08759; settings: remark: other sources report otherwise
T3 chain: T1 sequence

[9] = target: metabotropic glutamate receptor mGluR5 (mouse (endogenous in cultured cortical neurons and barrel cortex)) (UniProt Q3UVX5); remark: listed apart in the source

Molecule: Fyn kinase (from UniProt P39688 1-537) (enzyme)
- binding [1]: binds
- binding [2]: binds
- binding [3]: binds
- binding [4]: binds
- binding [5]: binds

Molecule: NL3 (from UniProt Q8BYM5 35-825)
- binding [2]: binds

Molecule: NMDAR2B (from UniProt Q01097 27-1482) (receptor)
- binding [4]: binds

Molecule: PIKE (from UniProt Q3UHD9 1-1186)
- binding [6]: binds

Molecule: Shank3 (from UniProt Q4ACU6 1-1730)
- binding [7]: binds

B1: E3 ubiquitin ligase Ube3a, O08759 1-870 (enzyme)
chain: T1 sequence
- binding [8]: binds

B2: Homer1 (protein, UniProt Q9Z2Y3 1-366)
chain: T2 sequence
- binding [9]: binds
